Paper PMC12663635
These are yes or no findings as the source states them, for the method shown. Binding seen in cells or lysates may run through a third protein. Some binding calls cover weakened binding; strength is not graded here.

Amino acid sequences for entries named in this document (tags omitted). Residues count along the entry.
UniProt P98161, residues 24-4303: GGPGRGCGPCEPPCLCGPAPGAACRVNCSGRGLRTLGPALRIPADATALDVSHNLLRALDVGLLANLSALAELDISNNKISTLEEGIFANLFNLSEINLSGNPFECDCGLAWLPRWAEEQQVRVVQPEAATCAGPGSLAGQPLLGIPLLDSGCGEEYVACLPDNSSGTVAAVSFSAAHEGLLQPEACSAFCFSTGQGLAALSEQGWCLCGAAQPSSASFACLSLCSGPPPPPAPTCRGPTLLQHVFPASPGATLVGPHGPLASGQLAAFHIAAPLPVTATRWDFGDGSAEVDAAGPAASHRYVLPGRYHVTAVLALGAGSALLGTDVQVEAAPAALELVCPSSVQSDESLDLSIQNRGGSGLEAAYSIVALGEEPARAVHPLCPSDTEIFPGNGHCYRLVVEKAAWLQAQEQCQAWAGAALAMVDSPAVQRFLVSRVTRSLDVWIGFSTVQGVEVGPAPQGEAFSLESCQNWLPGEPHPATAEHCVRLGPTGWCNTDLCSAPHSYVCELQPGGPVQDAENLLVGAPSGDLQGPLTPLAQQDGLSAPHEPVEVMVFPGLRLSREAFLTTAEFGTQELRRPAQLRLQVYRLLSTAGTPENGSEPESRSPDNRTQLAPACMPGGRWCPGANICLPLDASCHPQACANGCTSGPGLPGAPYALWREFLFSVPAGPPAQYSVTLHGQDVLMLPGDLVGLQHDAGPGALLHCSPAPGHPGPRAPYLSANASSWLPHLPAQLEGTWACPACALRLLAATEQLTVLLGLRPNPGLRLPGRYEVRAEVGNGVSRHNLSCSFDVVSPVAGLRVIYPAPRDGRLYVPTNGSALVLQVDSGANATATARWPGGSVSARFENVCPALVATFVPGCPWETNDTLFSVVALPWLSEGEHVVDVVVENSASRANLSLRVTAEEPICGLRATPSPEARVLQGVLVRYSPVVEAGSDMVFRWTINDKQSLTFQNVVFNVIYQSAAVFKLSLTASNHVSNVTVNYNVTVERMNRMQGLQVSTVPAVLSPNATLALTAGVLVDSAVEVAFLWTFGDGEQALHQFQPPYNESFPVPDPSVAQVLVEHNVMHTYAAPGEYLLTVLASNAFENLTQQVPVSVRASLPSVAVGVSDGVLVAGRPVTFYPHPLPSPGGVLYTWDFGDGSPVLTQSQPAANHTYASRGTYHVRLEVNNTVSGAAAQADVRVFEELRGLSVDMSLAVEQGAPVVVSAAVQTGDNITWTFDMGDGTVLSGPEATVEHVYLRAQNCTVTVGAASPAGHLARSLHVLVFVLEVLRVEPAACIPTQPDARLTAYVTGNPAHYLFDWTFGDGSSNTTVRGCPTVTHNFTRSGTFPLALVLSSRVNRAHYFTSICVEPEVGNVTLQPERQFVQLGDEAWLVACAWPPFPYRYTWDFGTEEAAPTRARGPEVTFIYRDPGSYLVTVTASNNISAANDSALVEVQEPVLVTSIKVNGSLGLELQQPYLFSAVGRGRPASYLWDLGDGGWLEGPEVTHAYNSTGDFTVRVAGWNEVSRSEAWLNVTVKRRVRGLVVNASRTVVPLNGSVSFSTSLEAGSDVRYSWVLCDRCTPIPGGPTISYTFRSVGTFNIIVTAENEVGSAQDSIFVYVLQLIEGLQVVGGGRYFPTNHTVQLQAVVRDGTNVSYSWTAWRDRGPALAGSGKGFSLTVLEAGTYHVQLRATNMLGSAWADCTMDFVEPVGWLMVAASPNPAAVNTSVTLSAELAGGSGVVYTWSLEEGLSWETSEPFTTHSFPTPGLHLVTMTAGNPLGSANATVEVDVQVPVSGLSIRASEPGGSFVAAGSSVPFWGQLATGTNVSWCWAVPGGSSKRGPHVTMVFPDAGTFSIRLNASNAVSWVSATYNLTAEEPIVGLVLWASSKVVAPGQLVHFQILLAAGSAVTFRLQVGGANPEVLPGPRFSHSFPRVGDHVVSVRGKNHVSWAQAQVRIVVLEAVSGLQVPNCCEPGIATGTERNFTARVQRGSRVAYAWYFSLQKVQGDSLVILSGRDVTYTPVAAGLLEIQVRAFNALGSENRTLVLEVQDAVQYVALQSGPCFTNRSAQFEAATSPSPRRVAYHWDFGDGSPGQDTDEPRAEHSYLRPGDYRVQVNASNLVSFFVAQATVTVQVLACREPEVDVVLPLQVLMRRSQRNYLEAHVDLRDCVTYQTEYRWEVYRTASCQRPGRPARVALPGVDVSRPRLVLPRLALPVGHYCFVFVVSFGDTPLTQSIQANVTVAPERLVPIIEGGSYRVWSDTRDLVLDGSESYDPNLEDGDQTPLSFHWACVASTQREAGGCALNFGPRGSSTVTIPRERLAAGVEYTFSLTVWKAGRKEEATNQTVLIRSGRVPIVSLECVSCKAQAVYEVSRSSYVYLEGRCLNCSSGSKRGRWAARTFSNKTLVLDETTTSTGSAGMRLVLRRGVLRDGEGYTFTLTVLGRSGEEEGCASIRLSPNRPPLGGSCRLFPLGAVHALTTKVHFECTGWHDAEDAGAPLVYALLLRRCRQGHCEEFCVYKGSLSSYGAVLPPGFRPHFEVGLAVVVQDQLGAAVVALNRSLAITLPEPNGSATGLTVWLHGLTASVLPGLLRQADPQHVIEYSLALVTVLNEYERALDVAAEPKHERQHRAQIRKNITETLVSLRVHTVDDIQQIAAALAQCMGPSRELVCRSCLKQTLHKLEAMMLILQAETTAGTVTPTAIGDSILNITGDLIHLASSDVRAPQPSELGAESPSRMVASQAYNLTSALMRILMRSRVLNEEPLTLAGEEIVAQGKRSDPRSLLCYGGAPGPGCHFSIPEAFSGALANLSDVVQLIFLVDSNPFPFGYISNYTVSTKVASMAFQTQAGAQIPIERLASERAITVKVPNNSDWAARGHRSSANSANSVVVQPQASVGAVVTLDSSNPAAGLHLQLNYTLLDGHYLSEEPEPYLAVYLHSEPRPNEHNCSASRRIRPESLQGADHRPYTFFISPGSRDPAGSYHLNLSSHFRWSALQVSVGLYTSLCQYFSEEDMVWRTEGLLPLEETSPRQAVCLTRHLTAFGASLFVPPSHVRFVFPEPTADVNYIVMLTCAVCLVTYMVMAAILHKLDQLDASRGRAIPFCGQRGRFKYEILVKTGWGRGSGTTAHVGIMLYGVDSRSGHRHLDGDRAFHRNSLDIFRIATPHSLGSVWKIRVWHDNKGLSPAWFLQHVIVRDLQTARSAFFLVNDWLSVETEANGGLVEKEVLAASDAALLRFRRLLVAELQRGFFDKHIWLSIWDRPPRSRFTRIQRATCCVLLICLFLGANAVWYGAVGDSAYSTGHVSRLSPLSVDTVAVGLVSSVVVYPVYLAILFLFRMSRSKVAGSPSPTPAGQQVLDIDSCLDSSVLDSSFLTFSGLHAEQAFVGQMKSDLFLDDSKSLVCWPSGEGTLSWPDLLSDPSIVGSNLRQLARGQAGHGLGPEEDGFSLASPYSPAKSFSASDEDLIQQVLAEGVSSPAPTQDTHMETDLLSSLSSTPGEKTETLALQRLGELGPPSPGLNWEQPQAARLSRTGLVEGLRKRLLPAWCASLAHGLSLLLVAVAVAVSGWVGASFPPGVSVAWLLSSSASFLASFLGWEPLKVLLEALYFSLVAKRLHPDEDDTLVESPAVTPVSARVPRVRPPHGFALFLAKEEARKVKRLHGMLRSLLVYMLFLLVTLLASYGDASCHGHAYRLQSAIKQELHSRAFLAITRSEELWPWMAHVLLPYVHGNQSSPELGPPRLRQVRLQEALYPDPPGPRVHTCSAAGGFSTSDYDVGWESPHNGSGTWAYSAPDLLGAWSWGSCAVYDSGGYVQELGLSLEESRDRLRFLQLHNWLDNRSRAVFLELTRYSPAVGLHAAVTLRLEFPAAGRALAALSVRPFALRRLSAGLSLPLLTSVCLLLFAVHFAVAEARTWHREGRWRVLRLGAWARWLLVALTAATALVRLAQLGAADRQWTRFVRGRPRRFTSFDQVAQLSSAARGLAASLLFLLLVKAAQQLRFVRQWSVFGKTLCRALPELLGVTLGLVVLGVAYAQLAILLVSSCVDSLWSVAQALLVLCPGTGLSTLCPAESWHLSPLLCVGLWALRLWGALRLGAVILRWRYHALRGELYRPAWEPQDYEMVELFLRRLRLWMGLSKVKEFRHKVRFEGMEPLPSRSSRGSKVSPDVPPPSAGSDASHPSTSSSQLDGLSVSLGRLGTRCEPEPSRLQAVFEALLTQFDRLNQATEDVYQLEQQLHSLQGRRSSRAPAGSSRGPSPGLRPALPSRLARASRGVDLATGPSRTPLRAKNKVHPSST
UniProt Q3SXY8: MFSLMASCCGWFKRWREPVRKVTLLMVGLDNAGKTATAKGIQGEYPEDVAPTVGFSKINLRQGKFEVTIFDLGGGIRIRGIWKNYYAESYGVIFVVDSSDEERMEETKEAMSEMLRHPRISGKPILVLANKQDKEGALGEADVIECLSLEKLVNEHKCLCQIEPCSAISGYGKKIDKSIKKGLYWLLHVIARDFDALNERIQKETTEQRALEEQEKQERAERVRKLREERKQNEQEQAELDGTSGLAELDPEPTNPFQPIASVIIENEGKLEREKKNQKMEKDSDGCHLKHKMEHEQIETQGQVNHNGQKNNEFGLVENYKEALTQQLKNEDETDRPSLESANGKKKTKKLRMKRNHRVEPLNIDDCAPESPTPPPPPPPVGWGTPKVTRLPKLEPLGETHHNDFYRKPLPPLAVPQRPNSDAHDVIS
UniProt P20700: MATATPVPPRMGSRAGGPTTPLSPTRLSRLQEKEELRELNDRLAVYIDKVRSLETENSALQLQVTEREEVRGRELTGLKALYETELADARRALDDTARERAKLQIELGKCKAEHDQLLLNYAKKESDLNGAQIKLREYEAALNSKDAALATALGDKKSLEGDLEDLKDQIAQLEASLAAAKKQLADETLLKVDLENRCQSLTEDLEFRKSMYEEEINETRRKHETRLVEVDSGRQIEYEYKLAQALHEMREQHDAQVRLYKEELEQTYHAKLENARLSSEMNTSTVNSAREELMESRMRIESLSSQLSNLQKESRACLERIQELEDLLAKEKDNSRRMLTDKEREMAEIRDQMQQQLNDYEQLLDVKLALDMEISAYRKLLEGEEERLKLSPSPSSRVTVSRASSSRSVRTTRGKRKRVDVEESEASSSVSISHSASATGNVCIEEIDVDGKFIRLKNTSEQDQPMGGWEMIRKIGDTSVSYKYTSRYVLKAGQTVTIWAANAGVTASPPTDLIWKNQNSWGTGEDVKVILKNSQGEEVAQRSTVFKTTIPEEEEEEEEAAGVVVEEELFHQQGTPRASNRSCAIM

Molecular target: polycystin-1 (human (endogenous in NHPTK)) (UniProt P98161)
Assay: proximity ligation; Duolink PLA in fixed NHPTK RECs with antibodies to the endogenous proteins; non-starved cells (PC1+ARL13B also in ciliated cells); PLA signal per cell

Row | binding | Substance
1 | binds | ARL13B (from UniProt Q3SXY8 1-428)
2 | no binding | LAMINB1 (from UniProt P20700 1-586)
